Experimental data: the supplement of paper PMC8728848
Some of the results follow.

Columns and labels:
Test in all cases: glycan array binding signal (z-score within array); higher = stronger binding
Conditions in all cases: glycan notation: IUPAC condensed, linker removed
Neu5Ac(a2-3)GalNAc = molecular target: Neu5Ac(a2-3)GalNAc
Outline: (§1)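 Glycan array data came from 3228 arrays in the Consortium for Functional Glycomics database, and only arrays with an available protein sequence were kept. Glycan names were put into IUPAC-condensed notation, and columns mapping to the same glycan were averaged. The binding signal is a within-array Z-score, averaged across arrays of one protein sequence run at different concentrations or buffers and across linkers. A negative Z-score can be read as non-binding.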

[1] = molecular target: Neu5Ac(a2-3)GalNAc(b1-4)GlcNAc
Outline: as §1

[2] = molecular target: Neu5Ac(a2-3)[GalNAc(b1-4)]Gal(b1-4)Glc
Outline: as §1

[3] = molecular target: Neu5Ac(a2-3)[GalNAc(b1-4)]Gal(b1-4)GlcNAc
Outline: as §1

[4] = molecular target: Neu5Ac(a2-3)[GalNAc(b1-4)]Gal(b1-4)GlcNAc(b1-3)GalNAc
Outline: as §1

[5] = molecular target: Neu5Ac(a2-3)[Neu5Ac(a2-6)]GalNAc
Outline: as §1

Neu5Ac(a2-6)Gal = molecular target: Neu5Ac(a2-6)Gal
Outline: as §1

[6] = molecular target: Neu5Ac(a2-6)Gal(b1-3)GlcNAc(b1-3)[Gal(b1-4)GlcNAc(b1-6)]Gal(b1-4)Glc
Outline: as §1

Neu5Ac(a2-6)Gal(b1-4)Glc = molecular target: Neu5Ac(a2-6)Gal(b1-4)Glc
Outline: as §1

[7] = molecular target: Neu5Ac(a2-6)Gal(b1-4)GlcNAc
Outline: as §1

[8] = molecular target: Neu5Ac(a2-6)Gal(b1-4)GlcNAc(b1-2)Man
Outline: as §1

[9] = molecular target: Neu5Ac(a2-6)Gal(b1-4)GlcNAc(b1-2)Man(a1-3)Man(b1-4)GlcNAc(b1-4)GlcNAc
Outline: as §1

[10] = molecular target: Neu5Ac(a2-6)Gal(b1-4)GlcNAc(b1-2)Man(a1-3)[Gal(b1-4)GlcNAc(b1-2)Man(a1-6)]Man(b1-4)GlcNAc(b1-4)GlcNAc
Outline: as §1

[11] = molecular target: Neu5Ac(a2-6)Gal(b1-4)GlcNAc(b1-2)Man(a1-3)[GlcNAc(b1-4)][Neu5Ac(a2-6)Gal(b1-4)GlcNAc(b1-2)Man(a1-6)]Man(b1-4)GlcNAc(b1-4)GlcNAc
Outline: as §1

[12] = molecular target: Neu5Ac(a2-6)Gal(b1-4)GlcNAc(b1-2)Man(a1-3)[Man(a1-6)]Man(b1-4)GlcNAc(b1-4)GlcNAc
Outline: as §1

[13] = molecular target: Neu5Ac(a2-6)Gal(b1-4)GlcNAc(b1-2)Man(a1-3)[Neu5Ac(a2-3)Gal(b1-4)GlcNAc(b1-2)Man(a1-6)]Man(b1-4)GlcNAc(b1-4)GlcNAc
Outline: as §1

[14] = molecular target: Neu5Ac(a2-6)Gal(b1-4)GlcNAc(b1-2)Man(a1-3)[Neu5Ac(a2-6)Gal(b1-4)GlcNAc(b1-2)Man(a1-6)]Man(b1-4)GlcNAc(b1-4)GlcNAc
Outline: as §1

[15] = molecular target: Neu5Ac(a2-6)Gal(b1-4)GlcNAc(b1-2)Man(a1-3)[Neu5Ac(a2-6)Gal(b1-4)GlcNAc(b1-2)Man(a1-6)]Man(b1-4)GlcNAc(b1-4)[Fuc(a1-6)]GlcNAc
Outline: as §1

[16] = molecular target: Neu5Ac(a2-6)Gal(b1-4)GlcNAc(b1-2)Man(a1-6)Man(b1-4)GlcNAc(b1-4)GlcNAc
Outline: as §1

[17] = molecular target: Neu5Ac(a2-6)Gal(b1-4)GlcNAc(b1-2)Man(a1-6)[Gal(b1-4)GlcNAc(b1-2)Man(a1-3)]Man(b1-4)GlcNAc(b1-4)GlcNAc
Outline: as §1

[18] = molecular target: Neu5Ac(a2-6)Gal(b1-4)GlcNAc(b1-2)Man(a1-6)[GlcNAc(b1-2)Man(a1-3)]Man(b1-4)GlcNAc(b1-4)GlcNAc
Outline: as §1

[19] = molecular target: Neu5Ac(a2-6)Gal(b1-4)GlcNAc(b1-2)Man(a1-6)[Man(a1-3)]Man(b1-4)GlcNAc(b1-4)GlcNAc
Outline: as §1

[20] = molecular target: Neu5Ac(a2-6)Gal(b1-4)GlcNAc(b1-2)[Neu5Ac(a2-6)Gal(b1-4)GlcNAc(b1-4)]Man(a1-3)[GlcNAc(b1-4)][Neu5Ac(a2-6)Gal(b1-4)GlcNAc(b1-2)[Neu5Ac(a2-6)Gal(b1-4)GlcNAc(b1-6)]Man(a1-6)]Man(b1-4)GlcNAc(b1-4)GlcNAc
Outline: as §1

[21] = molecular target: Neu5Ac(a2-6)Gal(b1-4)GlcNAc(b1-2)[Neu5Ac(a2-6)Gal(b1-4)GlcNAc(b1-4)]Man(a1-3)[GlcNAc(b1-4)][Neu5Ac(a2-6)Gal(b1-4)GlcNAc(b1-4)Man(a1-6)]Man(b1-4)GlcNAc(b1-4)GlcNAc
Outline: as §1

[22] = molecular target: Neu5Ac(a2-6)Gal(b1-4)GlcNAc(b1-2)[Neu5Ac(a2-6)Gal(b1-4)GlcNAc(b1-6)]Man(a1-6)[Neu5Ac(a2-6)Gal(b1-4)GlcNAc(b1-2)Man(a1-3)][GlcNAc(b1-4)]Man(b1-4)GlcNAc(b1-4)GlcNAc
Outline: as §1

[23] = molecular target: Neu5Ac(a2-6)Gal(b1-4)GlcNAc(b1-3)Gal(b1-3)GlcNAc
Outline: as §1

[24] = molecular target: Neu5Ac(a2-6)Gal(b1-4)GlcNAc(b1-3)Gal(b1-4)GlcNAc
Outline: as §1

[25] = molecular target: Neu5Ac(a2-6)Gal(b1-4)GlcNAc(b1-3)Gal(b1-4)GlcNAc(b1-2)Man(a1-3)[Neu5Ac(a2-6)Gal(b1-4)GlcNAc(b1-3)Gal(b1-4)GlcNAc(b1-2)Man(a1-6)]GalNAc
Outline: as §1

[26] = molecular target: Neu5Ac(a2-6)Gal(b1-4)GlcNAc(b1-3)Gal(b1-4)GlcNAc(b1-3)Gal(b1-4)GlcNAc
Outline: as §1

[27] = molecular target: Neu5Ac(a2-6)Gal(b1-4)GlcNAc(b1-3)Gal(b1-4)GlcNAc(b1-3)Gal(b1-4)GlcNAc(b1-2)Man(a1-3)[Neu5Ac(a2-6)Gal(b1-4)GlcNAc(b1-3)Gal(b1-4)GlcNAc(b1-3)Gal(b1-4)GlcNAc(b1-2)Man(a1-6)]GalNAc
Outline: as §1

[28] = molecular target: Neu5Ac(a2-6)Gal(b1-4)GlcNAc(b1-3)Gal(b1-4)GlcNAc(b1-3)GalNAc
Outline: as §1

[29] = molecular target: Neu5Ac(a2-6)Gal(b1-4)GlcNAc(b1-3)Gal(b1-4)GlcNAc(b1-3)[Neu5Ac(a2-6)Gal(b1-4)GlcNAc(b1-3)Gal(b1-4)GlcNAc(b1-6)]GalNAc
Outline: as §1

[30] = molecular target: Neu5Ac(a2-6)Gal(b1-4)GlcNAc(b1-3)Gal(b1-4)GlcNAc(b1-6)[Gal(b1-3)]GalNAc
Outline: as §1

[31] = molecular target: Neu5Ac(a2-6)Gal(b1-4)GlcNAc(b1-3)Gal(b1-4)[Fuc(a1-3)]GlcNAc(b1-3)Gal(b1-4)[Fuc(a1-3)]GlcNAc
Outline: as §1

[32] = molecular target: Neu5Ac(a2-6)Gal(b1-4)GlcNAc(b1-3)GalNAc
Outline: as §1

[33] = molecular target: Neu5Ac(a2-6)Gal(b1-4)GlcNAc(b1-3)[Neu5Ac(a2-6)Gal(b1-4)GlcNAc(b1-6)]GalNAc
Outline: as §1

[34] = molecular target: Neu5Ac(a2-6)Gal(b1-4)GlcNAc(b1-6)GalNAc
Outline: as §1

[35] = molecular target: Neu5Ac(a2-6)Gal(b1-4)GlcNAc(b1-6)[Gal(b1-3)GlcNAc(b1-3)]Gal(b1-4)Glc
Outline: as §1

[36] = molecular target: Neu5Ac(a2-6)Gal(b1-4)GlcNAc(b1-6)[Gal(b1-3)]GalNAc
Outline: as §1

[37] = molecular target: Neu5Ac(a2-6)Gal(b1-4)GlcNAc6S
Outline: as §1

Neu5Ac(a2-6)GalNAc = molecular target: Neu5Ac(a2-6)GalNAc
Outline: as §1

[38] = molecular target: Neu5Ac(a2-6)GalNAc(b1-4)GlcNAc
Outline: as §1

[39] = molecular target: Neu5Ac(a2-6)GalNAc(b1-4)GlcNAc6S
Outline: as §1

[40] = molecular target: Neu5Ac(a2-6)GlcNAc(b1-4)GlcNAc
Outline: as §1

[41] = molecular target: Neu5Ac(a2-6)GlcNAc(b1-4)GlcNAc(b1-4)GlcNAc
Outline: as §1

B1: Mermaid2 (Stilbonema majum) (protein)
chain: MGSSHHHHHHSSGLVPRGSHMAASGWLRSPQGTVVKLYRRSLSWSKADEFCKDVDGRLVVDRTADMHLFLIKNVLKEKKSRVWVGLRRTAPHSRTWIWSDGTRQNEDDLNTNLWLRDEPNDAAGEEECALFMYSPWEKAWGLNDYLCRGGCRSYQFICEKGIR
glycan array binding signal (z-score) (Neu5Ac(a2-3)GalNAc): 0.243 | glycan array binding signal (z-score) [1]: 1.14 | glycan array binding signal (z-score) [2]: -0.812 | glycan array binding signal (z-score) [3]: 0.008 | glycan array binding signal (z-score) [4]: -0.587 | glycan array binding signal (z-score) [5]: 2.5 | glycan array binding signal (z-score) (Neu5Ac(a2-6)Gal): -0.718 | glycan array binding signal (z-score) [6]: -0.713 | glycan array binding signal (z-score) (Neu5Ac(a2-6)Gal(b1-4)Glc): -0.397 | glycan array binding signal (z-score) [7]: -0.338 | glycan array binding signal (z-score) [8]: 0.94 | glycan array binding signal (z-score) [9]: -0.055 | glycan array binding signal (z-score) [10]: 0.023 | glycan array binding signal (z-score) [11]: -0.623 | glycan array binding signal (z-score) [12]: -0.03 | glycan array binding signal (z-score) [13]: -0.109 | glycan array binding signal (z-score) [14]: -0.187 | glycan array binding signal (z-score) [15]: -0.781 | glycan array binding signal (z-score) [16]: -0.552 | glycan array binding signal (z-score) [17]: -0.551 | glycan array binding signal (z-score) [18]: -0.362 | glycan array binding signal (z-score) [19]: -0.021 | glycan array binding signal (z-score) [20]: -0.564 | glycan array binding signal (z-score) [21]: -0.706 | glycan array binding signal (z-score) [22]: -0.79 | glycan array binding signal (z-score) [23]: 0.521 | glycan array binding signal (z-score) [24]: -0.49 | glycan array binding signal (z-score) [25]: -0.522 | glycan array binding signal (z-score) [26]: -0.484 | glycan array binding signal (z-score) [27]: 0.952 | glycan array binding signal (z-score) [28]: -0.709 | glycan array binding signal (z-score) [29]: -0.133 | glycan array binding signal (z-score) [30]: -0.808 | glycan array binding signal (z-score) [31]: -0.092 | glycan array binding signal (z-score) [32]: -0.032 | glycan array binding signal (z-score) [33]: -0.642 | glycan array binding signal (z-score) [34]: -0.218 | glycan array binding signal (z-score) [35]: -0.2 | glycan array binding signal (z-score) [36]: -0.781 | glycan array binding signal (z-score) [37]: -0.632 | glycan array binding signal (z-score) (Neu5Ac(a2-6)GalNAc): -0.728 | glycan array binding signal (z-score) [38]: -0.781 | glycan array binding signal (z-score) [39]: -0.212 | glycan array binding signal (z-score) [40]: -0.763 | glycan array binding signal (z-score) [41]: 0.021
